{
  "sequences": {"note": "Amino acid sequences for entries named in this document (tags omitted). Residues count along the entry.", "UniProt O75581, residues 20-1613": "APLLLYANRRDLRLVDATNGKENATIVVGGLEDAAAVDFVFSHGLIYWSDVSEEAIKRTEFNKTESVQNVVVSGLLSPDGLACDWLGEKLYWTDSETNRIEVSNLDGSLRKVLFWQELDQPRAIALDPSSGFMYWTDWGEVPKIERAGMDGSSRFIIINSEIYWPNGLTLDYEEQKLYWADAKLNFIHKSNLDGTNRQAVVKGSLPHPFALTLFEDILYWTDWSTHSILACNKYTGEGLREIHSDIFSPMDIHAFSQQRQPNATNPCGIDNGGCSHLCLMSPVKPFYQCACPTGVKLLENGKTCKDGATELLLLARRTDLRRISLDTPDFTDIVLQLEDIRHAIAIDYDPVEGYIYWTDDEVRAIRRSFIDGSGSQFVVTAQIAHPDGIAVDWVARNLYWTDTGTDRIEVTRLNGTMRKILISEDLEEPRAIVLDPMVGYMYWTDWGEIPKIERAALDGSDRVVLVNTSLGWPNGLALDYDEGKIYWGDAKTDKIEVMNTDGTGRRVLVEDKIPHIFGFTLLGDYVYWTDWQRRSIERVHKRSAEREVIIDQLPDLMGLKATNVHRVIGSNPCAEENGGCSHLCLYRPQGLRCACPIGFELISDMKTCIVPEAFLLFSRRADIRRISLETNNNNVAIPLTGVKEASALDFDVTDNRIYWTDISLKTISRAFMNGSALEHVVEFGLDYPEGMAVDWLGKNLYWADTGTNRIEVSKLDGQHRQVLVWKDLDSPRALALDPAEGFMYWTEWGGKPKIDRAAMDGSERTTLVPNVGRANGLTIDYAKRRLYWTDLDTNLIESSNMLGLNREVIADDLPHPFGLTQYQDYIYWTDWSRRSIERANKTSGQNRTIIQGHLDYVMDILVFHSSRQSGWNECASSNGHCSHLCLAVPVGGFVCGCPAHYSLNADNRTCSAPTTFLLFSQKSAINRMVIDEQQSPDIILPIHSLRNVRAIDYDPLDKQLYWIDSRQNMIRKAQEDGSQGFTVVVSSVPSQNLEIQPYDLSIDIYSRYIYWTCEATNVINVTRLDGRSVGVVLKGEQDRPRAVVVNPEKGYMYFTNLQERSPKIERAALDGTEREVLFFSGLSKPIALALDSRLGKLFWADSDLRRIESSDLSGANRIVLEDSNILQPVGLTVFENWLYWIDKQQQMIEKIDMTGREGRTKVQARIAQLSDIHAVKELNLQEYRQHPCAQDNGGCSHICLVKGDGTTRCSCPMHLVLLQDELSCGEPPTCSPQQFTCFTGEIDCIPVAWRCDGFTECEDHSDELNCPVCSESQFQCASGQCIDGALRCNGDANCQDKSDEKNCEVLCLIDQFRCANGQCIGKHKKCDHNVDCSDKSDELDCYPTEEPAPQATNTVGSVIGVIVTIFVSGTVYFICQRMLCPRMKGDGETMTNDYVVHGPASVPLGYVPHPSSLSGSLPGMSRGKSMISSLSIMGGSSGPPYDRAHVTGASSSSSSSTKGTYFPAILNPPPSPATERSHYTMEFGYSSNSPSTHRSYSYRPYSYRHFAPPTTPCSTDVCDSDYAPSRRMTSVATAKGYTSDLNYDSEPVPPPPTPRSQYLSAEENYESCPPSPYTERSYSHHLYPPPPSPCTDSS", "UniProt Q9BQB4, residues 24-213": "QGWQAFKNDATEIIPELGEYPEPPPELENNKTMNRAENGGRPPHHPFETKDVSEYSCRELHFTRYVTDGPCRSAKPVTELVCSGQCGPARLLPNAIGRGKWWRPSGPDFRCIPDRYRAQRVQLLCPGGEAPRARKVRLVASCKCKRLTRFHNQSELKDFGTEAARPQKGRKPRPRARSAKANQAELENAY"},
  "source": "patent US20100028335A1",
  "key": {"[1]": {"target": "Low-density lipoprotein receptor-related protein 6 (LRP6) (Human) (UniProt O75581)", "test": "TAP, LC-MS/MS; Hek293 and UMR106 membrane fraction"}, "[2]": {"target": "Low-density lipoprotein receptor-related protein 6 (LRP6) (Human) (UniProt O75581)", "test": "TAP, LC-MS/MS"}},
  "note": "Results are given in words; binding and its absence hold for the method and conditions named. Binding seen in cells or lysates may run through a third protein. Some results given as binding are weak or reduced against the parent protein; the word gives no strength.",
  "data": [
    {"substance": "TAP-tagged sclerostin (N- or C-terminally tagged, construct not distinguished where told) (from UniProt Q9BQB4 24-213) (ligand)", "values": [
      {"measurement": "binding", "setting": "[1]", "result": "binds"},
      {"measurement": "binding", "setting": "[2]", "result": "binds"}
    ]}
  ]
}
